PubChem BioAssay AID1259424 | University of Nebraska Medical Center | 2018
Shown is an unselected part of about 14,000 reagents. 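Higher correlation or smaller distance means closer resemblance to KSR1 loss; control wells, including KSR1 knockdowns, recur on many plates.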 Not given: the time to read-out.

Assay: 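Rank knockdowns across the genome by resemblance to the KSR1 depletion profile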 (primary screen)
Cells: human HCT116 colon cancer cells
Knock-down reagent: siRNA pool against human genes, 50 nM
Measurement: 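Six signature mRNAs by branched-DNA multiplex assay, scaled to two housekeeping genes and non-targeting median, log2; matched to mean KSR1 knockdown profile by Pearson correlation and euclidean distance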
Direction: mean correlation with KSR1 profile and KSR1 correlation: higher = expression change more like KSR1 knockdown; mean distance from KSR1 profile: higher = expression change less like KSR1 knockdown

Gene | mean correlation with KSR1 profile | mean distance from KSR1 profile | KSR1 correlation, replicate 1 | KSR1 correlation, replicate 2 | KSR1 correlation, replicate 3
PHAF1 (phagophore assembly factor 1) | 0.0325 | 1.86 | -0.659 | 0.143 | -0.232
USP6 (ubiquitin specific peptidase 6) | -0.649 | 2.44 | -0.407 | -0.764 | -0.798
AGO2 (argonaute RISC catalytic component 2) | 0.192 | 1.82 | -0.0472 | 0.144 | 0.0675
CCL24 (C-C motif chemokine ligand 24) | -0.307 | 1.74 | 0.0219 | -0.633 | -0.301
CHI3L1 (chitinase 3 like 1) | 0.023 | 1.59 | -0.04 | 0.288 | -0.173
KIF5B (kinesin family member 5B) | -0.366 | 2.2 | -0.13 | -0.604 | -0.51
OBI1 (ORC ubiquitin ligase 1) | 0.559 | 1.37 | 0.67 | 0.494 | 0.342
ATG16L1 (autophagy related 16 like 1) | 0.124 | 2.79 | 0.141 | -0.125 | 0.307
FABP7 (fatty acid binding protein 7) | 0.0804 | 1.75 | -0.0456 | 0.0628 | 0.147
GFPT1 (glutamine--fructose-6-phosphate transaminase 1) | 0.0276 | 3.06 | -0.106 | -0.0995 | 0.155
CEL (carboxyl ester lipase) | -0.657 | 2.49 | -0.666 | -0.735 | -0.741
LMAN2 (lectin, mannose binding 2) | -0.488 | 2.19 | -0.35 | -0.56 | -0.348
CAND1 (cullin associated and neddylation dissociated 1) | -0.411 | 1.46 | -0.684 | -0.551 | -0.111
CD180 (CD180 molecule) | -0.119 | 1.28 | 0.0708 | -0.265 | 0.0122
COL1A1 (collagen type I alpha 1 chain) | -0.626 | 2.5 | -0.602 | -0.697 | -0.473
RPL18A (ribosomal protein L18a) | 0.433 | 3.18 | -0.0118 | 0.641 | 0.509
KIF1C (kinesin family member 1C) | -0.00409 | 1.73 | -0.0567 | -0.0804 | 0.022
NOG (noggin) | -0.282 | 2.58 | -0.146 | -0.506 | -0.289
LRRK1 (leucine rich repeat kinase 1) | 0.555 | 1.74 | 0.604 | 0.595 | 0.206
NMT2 (N-myristoyltransferase 2) | -0.4 | 1.94 | -0.572 | -0.137 | 0.032
SEC24C (SEC24 homolog C, COPII component) | 0.15 | 1.67 | 0.187 | 0.383 | 0.0769
VPS41 (VPS41 subunit of HOPS complex) | -0.63 | 1.91 | -0.867 | -0.801 | -0.502
FBL (fibrillarin rRNA 2'-O-methyltransferase) | -0.577 | 3.06 | -0.656 | -0.687 | -0.526
LINC00626 (long independently transcribed non-coding RNA 626) | -0.0504 | 3.95 | -0.131 | 0.0918 | -0.395
MPHOSPH9 (M-phase phosphoprotein 9) | -0.244 | 2.71 | -0.846 | -0.211 | 0.172
ESYT2 (extended synaptotagmin 2) | -0.933 | 2.37 | -0.891 | -0.927 | -0.814
NT5C1A (5'-nucleotidase, cytosolic IA) | 0.572 | 2.98 | 0.753 | 0.685 | 0.0726
STT3A (STT3 oligosaccharyltransferase complex catalytic subunit A) | -0.101 | 1.58 | -0.306 | -0.259 | 0.119
NFKBIA (NFKB inhibitor alpha) | 0.599 | 1.58 | 0.552 | 0.106 | 0.789
FPR2 (formyl peptide receptor 2) | 0.0698 | 2.52 | 0.0333 | 0.317 | -0.27
NDUFB8 (NADH:ubiquinone oxidoreductase subunit B8) | 0.0826 | 1.81 | 0.262 | -0.00728 | 0.0889
PTDSS1 (phosphatidylserine synthase 1) | 0.524 | 5.07 | 0.571 | 0.513 | 0.51

Next part (3 carried over from the part before).
Gene | mean correlation with KSR1 profile | mean distance from KSR1 profile | KSR1 correlation, replicate 1 | KSR1 correlation, replicate 2 | KSR1 correlation, replicate 3
FPR2 (formyl peptide receptor 2) | 0.0698 | 2.52 | 0.0333 | 0.317 | -0.27
NDUFB8 (NADH:ubiquinone oxidoreductase subunit B8) | 0.0826 | 1.81 | 0.262 | -0.00728 | 0.0889
PTDSS1 (phosphatidylserine synthase 1) | 0.524 | 5.07 | 0.571 | 0.513 | 0.51
LRIT1 (leucine rich repeat, Ig-like and transmembrane domains 1) | -0.563 | 3.35 | -0.256 | -0.671 | -0.646
ZBED2 (zinc finger BED-type containing 2) | 0.175 | 2.75 | 0.209 | 0.13 | 0.22
GPRC6A (G protein-coupled receptor class C group 6 member A) | 0.244 | 2.69 | 0.255 | 0.352 | 0.128
CDC42EP2 (CDC42 effector protein 2) | -0.555 | 1.52 | -0.478 | -0.525 | -0.679
BTNL2 (butyrophilin like 2) | 0.00474 | 2.72 | 0.186 | -0.0754 | -0.0895
PLA2G15 (phospholipase A2 group XV) | 0.472 | 2.18 | 0.46 | 0.539 | 0.441
SLC2A6 | -0.424 | 1.98 | -0.294 | -0.523 | -0.436
MEP1A (meprin A subunit alpha) | -0.369 | 1.26 | -0.247 | -0.346 | -0.645
MACROH2A2 (macroH2A.2 histone) | -0.394 | 3.34 | -0.356 | -0.488 | -0.614
NTS (neurotensin) | 0.262 | 2.67 | 0.37 | 0.154 | 0.224
SLC25A24 | -0.381 | 2.94 | -0.576 | -0.577 | -0.481
CD300E (CD300e molecule) | -0.787 | 1.93 | -0.748 | -0.662 | -0.797
MYL1 (myosin light chain 1) | -0.0166 | 2.28 | 0.182 | 0.00589 | -0.0331
H4C2 (H4 clustered histone 2) | -0.164 | 1.55 | -0.433 | -0.498 | -0.146
NR1I2 (nuclear receptor subfamily 1 group I member 2) | -0.126 | 2.65 | 0.0449 | -0.0738 | -0.362
ADAM21 (ADAM metallopeptidase domain 21) | -0.1 | 2.33 | 0.0251 | -0.357 | -0.102
PRMT3 (protein arginine methyltransferase 3) | -0.216 | 1.99 | -0.722 | -0.227 | 0.275
DMBT1 (deleted in malignant brain tumors 1) | -0.0311 | 1.53 | -0.0474 | 0.0738 | -0.035
